Experimental data from US20160074367.

Columns and labels:
[1] = molecular target: T1, rIRP1 (recombinant iron regulatory protein 1) (UniProt P21399); test: EMSA; settings: CITED Cho et al. 2010; Scatchard analysis; exact probe of cited work not given; purified recombinant protein; label: 5'-biotin
T1 sequence (looked up, limits assumed): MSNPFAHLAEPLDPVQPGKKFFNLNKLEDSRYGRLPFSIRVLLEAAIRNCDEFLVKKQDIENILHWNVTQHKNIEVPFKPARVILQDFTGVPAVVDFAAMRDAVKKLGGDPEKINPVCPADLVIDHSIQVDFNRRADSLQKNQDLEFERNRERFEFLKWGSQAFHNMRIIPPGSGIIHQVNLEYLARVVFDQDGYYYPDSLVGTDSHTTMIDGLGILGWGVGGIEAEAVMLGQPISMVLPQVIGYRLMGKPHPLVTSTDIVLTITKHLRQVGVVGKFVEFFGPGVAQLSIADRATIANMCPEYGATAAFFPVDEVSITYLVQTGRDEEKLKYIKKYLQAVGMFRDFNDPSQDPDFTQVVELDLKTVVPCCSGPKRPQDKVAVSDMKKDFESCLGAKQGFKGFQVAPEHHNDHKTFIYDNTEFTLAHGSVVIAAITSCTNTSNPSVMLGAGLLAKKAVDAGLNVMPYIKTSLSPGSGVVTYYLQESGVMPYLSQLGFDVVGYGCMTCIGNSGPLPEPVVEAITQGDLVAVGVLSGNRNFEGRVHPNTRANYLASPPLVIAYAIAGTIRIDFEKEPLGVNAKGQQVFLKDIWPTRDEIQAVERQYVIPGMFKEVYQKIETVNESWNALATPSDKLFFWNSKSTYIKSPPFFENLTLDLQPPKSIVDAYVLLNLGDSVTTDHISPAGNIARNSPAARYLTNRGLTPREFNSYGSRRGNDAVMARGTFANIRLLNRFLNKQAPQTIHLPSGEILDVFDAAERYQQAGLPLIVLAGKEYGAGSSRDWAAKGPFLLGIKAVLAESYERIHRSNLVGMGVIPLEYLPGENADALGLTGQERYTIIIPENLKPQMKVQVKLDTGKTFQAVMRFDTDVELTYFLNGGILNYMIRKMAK

[2] = molecular target: IRP1 (iron regulatory protein 1, ACO1) (Homo sapiens) (UniProt P21399); test: pull-down; settings: 100 nM RNA, 100 ug lysate, protein in an extract, protein details: endogenous, SH-SY5Y cytoplasmic lysate, label: 5'-biotin
[3] = molecular target: T2, IRP2 (iron regulatory protein 2, IREB2) (Homo sapiens) (UniProt P48200); test: pull-down; settings: 100 nM RNA, 100 ug lysate, room temperature; binding maintained with JTR-009; protein in an extract; protein details: endogenous, SH-SY5Y cytoplasmic lysate; label: 5'-biotin
T2 sequence (looked up, limits assumed): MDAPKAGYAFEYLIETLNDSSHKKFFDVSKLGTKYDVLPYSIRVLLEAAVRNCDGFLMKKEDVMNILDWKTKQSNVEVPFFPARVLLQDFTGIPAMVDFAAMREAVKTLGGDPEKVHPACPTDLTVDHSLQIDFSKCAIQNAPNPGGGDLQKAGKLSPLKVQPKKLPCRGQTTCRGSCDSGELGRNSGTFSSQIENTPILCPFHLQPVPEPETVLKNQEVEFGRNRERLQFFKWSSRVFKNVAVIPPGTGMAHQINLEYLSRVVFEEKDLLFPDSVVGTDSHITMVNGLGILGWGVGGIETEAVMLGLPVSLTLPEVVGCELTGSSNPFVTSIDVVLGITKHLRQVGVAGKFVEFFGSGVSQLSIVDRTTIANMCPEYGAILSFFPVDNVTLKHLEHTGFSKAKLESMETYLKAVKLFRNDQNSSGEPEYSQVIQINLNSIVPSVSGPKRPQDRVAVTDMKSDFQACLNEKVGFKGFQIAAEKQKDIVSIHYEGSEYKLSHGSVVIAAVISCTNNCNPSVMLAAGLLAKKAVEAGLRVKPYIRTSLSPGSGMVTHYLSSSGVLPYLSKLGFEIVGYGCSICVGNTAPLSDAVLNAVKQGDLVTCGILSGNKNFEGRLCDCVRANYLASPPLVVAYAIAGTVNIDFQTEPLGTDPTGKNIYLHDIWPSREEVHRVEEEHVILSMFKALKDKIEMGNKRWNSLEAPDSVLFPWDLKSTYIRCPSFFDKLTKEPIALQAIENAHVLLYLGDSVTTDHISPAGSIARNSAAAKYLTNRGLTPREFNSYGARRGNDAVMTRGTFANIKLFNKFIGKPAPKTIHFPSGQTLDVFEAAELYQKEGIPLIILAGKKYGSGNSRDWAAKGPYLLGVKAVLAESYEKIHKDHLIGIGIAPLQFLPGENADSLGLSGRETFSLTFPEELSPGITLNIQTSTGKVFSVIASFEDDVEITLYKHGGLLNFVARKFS

“GCGGUGGCGGCGCGGGCAGAGCAAGGACGCGGCGGAU [APP IRE]” was tested, and the Kd [1] was 30 pM and the binding result ([2]; 3 h room temperature, binding reduced 20% at 0.3 uM, 50% at 3 uM, fully at 30 uM JTR-009) was “binds”.
In the case of “GGGUUUCCUGCUUCAACAGUGCUUGGACGGAACCCGG [H-ferritin IRE]”, the Kd [1] is reported as 40 pM, the binding result [3] is reported as “binds” and the binding result ([2]; room temperature, binding maintained with JTR-009) is reported as “binds”.

The exact form of at least one protein or probe is not confirmed. For some assays here: At least one result comes from cells or an extract, where the contact may be indirect. For some assays here: Tags and fusion partners may be left off the protein sequences shown.
